Source: PubChem BioAssay AID540256 (National Center for Advancing Translational Sciences (NCATS), 2011)
Among all 300,000 compounds or so, about 3,700 (1.2%) were called active. Inconclusive means that the source gave no clear call. Such entries were picked first, then a sample of the others. The call rests on the fitted dose curve; tested in HEK293 cells. Potencies beside an inconclusive call are fits to weak or partial responses and may not hold up.

assay: qHTS for Inhibitors of binding or entry into cells for Lassa Virus; conditions: Lassa virus pseudotype entry inhibition, cell reporter; series mostly up to 37.9 µM; further: nearly all actives have a fitted effect of over 50% in size
Potency means the concentration at half of the fitted maximal effect.

Compound | Potency
Cc1ccc(Cc2c(C)nc3nc(SCC(=O)NCc4ccco4)nn3c2C)cc1 | inconclusive: 32.6 µM [inhibitor, partial curve, poor fit]
CCc1nc(C)cn1S(=O)(=O)c1cc([N+](=O)[O-])ccc1Cl | inconclusive: 3.16 µM [inhibitor, full curve]
CCOC(=O)Cc1c(C)nc(Cc2ccc(OC(C)C)cc2)[nH]c1=O | inconclusive: 14.1 µM [inhibitor, partial curve, poor fit]
CCOC(=O)c1cc(-c2ccc(F)cc2)n(CC(=O)NCc2ccc(OC)cc2)c1C | inconclusive: 2 µM [inhibitor, full curve, poor fit]
Oc1ccc(N2Cc3ccccc3C2)cc1 | inconclusive: 10 µM [activator, partial curve, poor fit]
CC(=O)C1=C(O)CCCC1=NCc1nc2ccccc2[nH]1 | inconclusive: 0.631 µM [inhibitor, partial curve, poor fit]
Cc1ccc(NS(=O)(=O)c2cc(C(=O)NCCSc3ccc(C)cc3)ccc2C)cc1 | inconclusive: 16.4 µM [inhibitor, partial curve, poor fit]
O=C(NCc1ccc(F)cc1)Nc1ccc(Cl)cc1 | inconclusive: 35.5 µM [activator, single point]
O=C1CC(c2ccco2)CC(O)=C1C=Nc1cc(Cl)ccc1O (stereo unspecified) | inactive
N#CCc1ccc(C(=O)c2ccccc2)s1 | inactive
COc1ccc(Br)c(C(=O)OCc2cc(=O)oc3cc(C)ccc23)c1 | inactive
COc1ccc(C(=O)CCN2CCCCCC2)cc1 | inactive
CCOc1ccccc1CNC(=O)CN(c1ccc(C)cc1)S(=O)(=O)N(C)C | inactive
CN(C(=O)COC(=O)CNC(=O)c1ccc(C(C)(C)C)cc1)c1c(N)n(Cc2ccccc2)c(=O)[nH]c1=O | inconclusive: 5.62 µM [activator, single point]
Cc1ccc(-c2cc(C(F)(F)F)nc(SCC(=O)c3cccc([N+](=O)[O-])c3)n2)cc1 | inactive
COc1ccc(-c2nnc(SCC(=O)NCc3ccccc3)nc2-c2ccc(OC)c(OC)c2)cc1OC | inconclusive: 35.5 µM [inhibitor, partial curve, poor fit]
CN1CCN(C(=O)c2cnn(-c3cccc(Cl)c3)c2C2CCN(C(=O)OC(C)(C)C)CC2)CC1 | inconclusive: 5.62 µM [inhibitor, full curve, poor fit]
COc1cc(CNC2CCCC2)cc(Cl)c1OCc1ccccc1Cl | inconclusive: 20.6 µM [inhibitor, single point]
CN(C)S(=O)(=O)c1cccc(NC(=O)COC(=O)C2(c3ccccc3F)CCCC2)c1 | active: 4.11 µM
Cc1nn(-c2ccccc2)c2c1N(CCCC(=O)NCc1ccc(Cl)cc1)C(=O)CS2 | inconclusive: 35.5 µM [inhibitor, single point]
O=C(NCc1ccco1)c1c[nH]c2ccc(S(=O)(=O)Nc3ccc(F)cc3F)cc2c1=O | inconclusive: 7.08 µM [inhibitor, full curve, poor fit]
CCN1c2ccccc2N(C)C1(C)c1ccccc1 (stereo unspecified) | inconclusive: 2 µM [inhibitor, partial curve, poor fit]
Cc1ccc(F)cc1NC(=O)CSc1n[nH]c(N)n1 | inconclusive: 5.62 µM [inhibitor, single point]
O=C(N/N=C/c1cccc(OC(=O)c2ccccc2Cl)c1)c1cccnc1 | inactive

Compound | Potency
C=CCN(Cc1nc(-c2ccc(OC)cc2)no1)C(=O)c1ccc2c(c1)OCO2 | inconclusive: 17.8 µM [inhibitor, single point]
O=C(/C=N/O)NCCCn1ccnc1 | inconclusive: 10 µM [activator, partial curve]
Cn1cc(Cl)c(C(=O)NNC(=S)NC2CCCCC2)n1 | inconclusive: 29.1 µM [activator, single point]
CCN(CC)c1ccc(/C=N/NC(=O)c2c(-c3ccccc3)noc2C)cc1 | inconclusive: 10 µM [inhibitor, partial curve]
CC(C)CCNC(=O)CN1C(=O)c2cccnc2Oc2ccccc21 | inconclusive: 6.31 µM [activator, single point]
N#Cc1ccccc1S(=O)(=O)N1CCCC(c2nc3c(nnn3Cc3cccc(Cl)c3)c(=O)[nH]2)C1 (stereo unspecified) | inactive
Cn1c(COc2ccccc2)nnc1SCC(=O)Nc1ccc(S(N)(=O)=O)cc1 | inactive
COc1ccc(C(=O)/C=C/c2cc(OC)c(O)c(OC)c2)c(F)c1 | active: 13 µM
CCCCN(Cc1cccs1)S(=O)(=O)c1ccc(-c2ccc(=O)[nH]n2)s1 | inactive
CCOC(=O)Cn1c(=O)n(C2CCCCC2)c2nc(-c3cccc(C)c3)nc(C(N)=O)c21 | inactive
COc1ccc(-n2c(SCC(=O)NCc3ccccc3)nc3n[nH]c(C)c3c2=N)cc1 | inconclusive: 25.1 µM [inhibitor, single point]
N/C(CCS(=O)(=O)c1ccc(Cl)cc1)=N\OC(=O)c1ccccc1C(F)(F)F | active: 22.4 µM
COC(=O)C1CCN(C(=O)/C=C/c2ccccc2)CC1 | inconclusive: 35.5 µM [activator, single point]
COc1ccc(-c2cc(C)no2)cc1S(=O)(=O)N1CC(C)Oc2ccccc21 (stereo unspecified) | inconclusive: 25.1 µM [inhibitor, single point]
CCOC(=O)C1=C(C)NC2=C(C(=O)c3ccccc32)C1c1ccc([N+](=O)[O-])o1 (stereo unspecified) | inactive
Cc1ccccc1C(=O)c1cccn1CC(=O)NCCN1CCN(c2cccc(C)c2C)CC1 | inconclusive: 29.1 µM [inhibitor, single point]
O=S(=O)(Nc1ccc(N2CCOCC2)cc1)c1cccs1 | inactive
N#Cc1ccc(OCc2nnc(-c3ccc([N+](=O)[O-])cc3)o2)cc1 | inconclusive: 3.55 µM [activator, full curve, poor fit]
Cc1ccc2scc(N3CCN(C)CC3)c(=O)c2c1 | inactive
O=C(CSc1ccc(-c2cccs2)nn1)Nc1cccc(F)c1 | inactive
COc1cccc(CNC(=O)c2nnc(Cc3ccc(Cl)cc3)o2)c1 | inactive
CCOCCc1nn2c(=O)cc(COC(=O)c3ccco3)nc2s1 | inactive
C/C(=N\NC(=S)NCc1ccccc1)c1ccc(Cl)s1 | inactive
O=C(NCc1ccc(Cl)cc1)C1CCN(S(=O)(=O)c2ccc3c(c2)CCCN3C(=O)C2CCC2)CC1 | inconclusive: 10 µM [inhibitor, partial curve, poor fit]

Some of these compounds in order of length of the SMILES, ascending.
Compound | Potency
Cn1cc(Cl)c(C(=O)NNC(=S)NC2CCCCC2)n1 | inconclusive: 29.1 µM [activator, single point]
COc1cccc(CNC(=O)c2nnc(Cc3ccc(Cl)cc3)o2)c1 | inactive
O=C(NCc1ccc(Cl)cc1)C1CCN(S(=O)(=O)c2ccc3c(c2)CCCN3C(=O)C2CCC2)CC1 | inconclusive: 10 µM [inhibitor, partial curve, poor fit]

More results follow.

Compound | Potency
O=C1c2ccccc2C(=O)N1c1cc([N+](=O)[O-])ccn1 | inconclusive: 20 µM [inhibitor, partial curve, poor fit]
Cc1cccc(CN(CC(=O)N/N=C/c2cccs2)S(=O)(=O)c2ccc(Cl)cc2)c1 | inconclusive: 22.4 µM [inhibitor, partial curve, poor fit]
O=C(CSc1nc(O)c(C/C=C/c2ccccc2)c(=O)[nH]1)Nc1cccc(F)c1 | inactive
CC(C)CC(NC(=O)CCl)c1ccccc1 (stereo unspecified) | inactive
Cc1ccccc1C(=O)NC1CCN(C(=O)NCc2ccccc2)CC1 | inconclusive: 1.26 µM [inhibitor, single point]
CCOc1cc(/C=C2/NC(=S)NC2=O)ccc1OCc1ccc([N+](=O)[O-])cc1 | inconclusive: 6.31 µM [inhibitor, full curve, poor fit]
CCc1noc(C)c1C(=O)N1CC(C)SC1=Nc1ccc(Cl)cc1 (stereo unspecified) | inactive
CC12CN3CC(C)(CN(C1)C3c1cc(Br)ccc1O)C2=O (stereo unspecified) | inactive
C/C(=N\NC(=O)c1cccc(Br)c1)c1ccc(Br)cc1 | inactive
CCc1ccc(NC(=O)CSc2nc(NS(=O)(=O)c3ccccc3)cc(=O)[nH]2)cc1 | inconclusive: 35.5 µM [inhibitor, single point]
COc1cccc(NC(=S)N2c3ccccc3CC2C)c1 (stereo unspecified) | inactive
CC(=O)n1cc(N(C(=O)CCl)c2ccc([N+](=O)[O-])cc2)c2ccccc21 | inconclusive: 15.8 µM [inhibitor, single point]
O=C1NC2(CCCCC2)N=C1c1ccc(F)cc1 | inactive
COCCN(C(=O)/C=C/c1ccccc1)c1nnc(-c2cccnc2)s1 | inconclusive: 11.2 µM [inhibitor, partial curve, poor fit]
COc1ccc(-c2n[nH]c(C)c2-c2ccc(Cl)cc2)c(O)c1OC | inconclusive: 23.1 µM [inhibitor, partial curve, poor fit]
Cc1cccc(-c2noc(-c3cc(-c4ccc(F)cc4)n[nH]3)n2)c1 | inactive
CCOc1ccc(CCNC(=O)Cc2ccc(NC(=O)N3CCSc4ncccc43)cc2)cc1 | inactive
Cc1ccccc1NC(=S)N1CCN(C(=O)c2ccco2)CC1 | inconclusive: 2 µM [inhibitor, partial curve, poor fit]
N#Cc1c(N2CCCCC2)nc(N)c2c(N)nc(SCC(=O)O)cc12 | inconclusive: 31.6 µM [inhibitor, partial curve, poor fit]
O=C(O)CCN1C(=O)/C(=C\c2ccc(-c3nc4ccccc4s3)o2)SC1=S | inconclusive: 0.355 µM [activator, partial curve, poor fit]
COC(=O)c1c(NC(=O)CCS(=O)(=O)c2ccccc2)sc2c1CCN(C)C2 | inactive
CCc1ccc(N(CC(=O)NC(C)(C)CC)C(=O)CCC(=O)Nc2nccs2)cc1 | inconclusive: 31.6 µM [inhibitor, single point]
CC(C)c1ccc2[nH]c3c(c2c1)CCCC3=O | inactive
